From PMC5740495
No constants are given. Whether binding was seen depends on the method and setting. In cells and extracts the contact can be indirect. Here binding means that the protein was enriched with, or labelled near, the bait; the list need not be complete.

The chains behind the UniProt entries cited, without tags or fusion partners.
UniProt Q92973: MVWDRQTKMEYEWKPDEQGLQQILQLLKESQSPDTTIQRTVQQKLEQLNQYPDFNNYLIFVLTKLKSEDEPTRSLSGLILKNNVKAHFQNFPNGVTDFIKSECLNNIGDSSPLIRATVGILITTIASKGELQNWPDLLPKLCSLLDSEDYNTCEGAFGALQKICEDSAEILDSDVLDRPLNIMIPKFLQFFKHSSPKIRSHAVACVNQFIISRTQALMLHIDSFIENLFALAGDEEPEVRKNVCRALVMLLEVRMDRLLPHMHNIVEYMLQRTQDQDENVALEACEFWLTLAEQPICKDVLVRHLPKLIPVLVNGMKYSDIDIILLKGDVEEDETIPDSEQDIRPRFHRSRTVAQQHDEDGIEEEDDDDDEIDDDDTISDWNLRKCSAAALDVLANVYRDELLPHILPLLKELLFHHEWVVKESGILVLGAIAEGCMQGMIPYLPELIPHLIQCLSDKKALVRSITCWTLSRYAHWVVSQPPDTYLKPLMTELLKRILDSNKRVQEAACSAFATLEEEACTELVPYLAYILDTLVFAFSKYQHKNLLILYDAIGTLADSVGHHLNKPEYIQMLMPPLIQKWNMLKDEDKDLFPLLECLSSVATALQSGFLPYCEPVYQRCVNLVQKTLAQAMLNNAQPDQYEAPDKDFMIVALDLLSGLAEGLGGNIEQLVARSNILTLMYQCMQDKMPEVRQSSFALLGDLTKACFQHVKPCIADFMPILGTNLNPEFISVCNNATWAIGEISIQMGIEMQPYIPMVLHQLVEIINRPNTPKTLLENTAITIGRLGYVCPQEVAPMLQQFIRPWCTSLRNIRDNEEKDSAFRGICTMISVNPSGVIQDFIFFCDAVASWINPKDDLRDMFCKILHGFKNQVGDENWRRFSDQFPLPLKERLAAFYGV
UniProt O15131: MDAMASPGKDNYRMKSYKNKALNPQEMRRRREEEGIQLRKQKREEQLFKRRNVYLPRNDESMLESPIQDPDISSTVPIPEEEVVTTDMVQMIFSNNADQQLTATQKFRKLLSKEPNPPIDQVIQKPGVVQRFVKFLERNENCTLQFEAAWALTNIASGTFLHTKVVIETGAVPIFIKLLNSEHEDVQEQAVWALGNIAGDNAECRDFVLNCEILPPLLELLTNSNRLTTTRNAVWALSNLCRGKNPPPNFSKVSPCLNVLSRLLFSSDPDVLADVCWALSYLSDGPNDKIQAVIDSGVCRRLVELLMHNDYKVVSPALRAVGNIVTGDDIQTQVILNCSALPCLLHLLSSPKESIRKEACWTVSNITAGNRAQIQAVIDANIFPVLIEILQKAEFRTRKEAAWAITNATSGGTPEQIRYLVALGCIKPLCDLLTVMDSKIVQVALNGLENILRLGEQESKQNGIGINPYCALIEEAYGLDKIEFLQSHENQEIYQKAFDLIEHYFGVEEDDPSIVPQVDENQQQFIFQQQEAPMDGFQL
UniProt P49790: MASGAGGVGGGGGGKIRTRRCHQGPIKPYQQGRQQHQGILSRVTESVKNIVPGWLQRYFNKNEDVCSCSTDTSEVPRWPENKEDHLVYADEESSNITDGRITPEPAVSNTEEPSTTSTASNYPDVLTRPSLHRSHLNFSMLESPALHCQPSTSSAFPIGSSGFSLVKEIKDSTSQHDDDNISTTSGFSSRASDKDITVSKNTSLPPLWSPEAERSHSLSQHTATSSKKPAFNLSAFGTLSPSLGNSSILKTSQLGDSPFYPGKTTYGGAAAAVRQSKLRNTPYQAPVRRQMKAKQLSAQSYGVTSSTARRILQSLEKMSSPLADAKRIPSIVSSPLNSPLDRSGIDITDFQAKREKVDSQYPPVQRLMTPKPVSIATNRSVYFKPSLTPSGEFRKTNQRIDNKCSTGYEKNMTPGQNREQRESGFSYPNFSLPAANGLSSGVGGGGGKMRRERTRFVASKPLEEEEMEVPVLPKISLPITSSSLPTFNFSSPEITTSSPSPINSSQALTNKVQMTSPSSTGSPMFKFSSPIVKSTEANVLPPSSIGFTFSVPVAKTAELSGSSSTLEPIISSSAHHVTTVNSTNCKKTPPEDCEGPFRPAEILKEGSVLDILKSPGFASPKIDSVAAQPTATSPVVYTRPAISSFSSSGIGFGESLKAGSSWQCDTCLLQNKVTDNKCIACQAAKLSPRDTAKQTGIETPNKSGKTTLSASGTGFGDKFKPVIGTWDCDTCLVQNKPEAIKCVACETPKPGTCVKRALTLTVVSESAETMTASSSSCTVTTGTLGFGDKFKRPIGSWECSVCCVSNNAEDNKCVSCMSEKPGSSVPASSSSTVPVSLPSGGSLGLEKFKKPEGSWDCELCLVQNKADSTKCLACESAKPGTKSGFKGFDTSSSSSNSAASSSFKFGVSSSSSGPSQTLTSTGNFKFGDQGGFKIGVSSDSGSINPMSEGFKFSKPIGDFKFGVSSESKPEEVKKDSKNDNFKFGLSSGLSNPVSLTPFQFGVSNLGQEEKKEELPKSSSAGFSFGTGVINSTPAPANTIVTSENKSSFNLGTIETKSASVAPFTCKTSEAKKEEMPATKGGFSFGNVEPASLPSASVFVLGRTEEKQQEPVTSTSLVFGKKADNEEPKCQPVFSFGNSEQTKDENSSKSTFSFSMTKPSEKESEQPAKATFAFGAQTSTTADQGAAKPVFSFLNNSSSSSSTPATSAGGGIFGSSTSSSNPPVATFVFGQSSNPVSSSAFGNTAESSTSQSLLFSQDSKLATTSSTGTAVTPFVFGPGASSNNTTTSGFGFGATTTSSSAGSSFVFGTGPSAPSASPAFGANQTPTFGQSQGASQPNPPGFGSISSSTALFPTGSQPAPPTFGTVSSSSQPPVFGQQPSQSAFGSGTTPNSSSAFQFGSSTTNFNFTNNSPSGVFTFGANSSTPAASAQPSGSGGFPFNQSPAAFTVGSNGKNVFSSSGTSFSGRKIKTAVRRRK

Key:
Assay in all cases: proximity labelling; BioID, large-scale, direct identification of biotinylated peptides: same NTR-BirA* lines; biotinylated peptides eluted from streptavidin beads with 80% ACN, 20% TFA after the on-bead digest, MS
[1] = molecular target: T1, IPO11 (human) (UniProt Q9UI26)
T1 sequence: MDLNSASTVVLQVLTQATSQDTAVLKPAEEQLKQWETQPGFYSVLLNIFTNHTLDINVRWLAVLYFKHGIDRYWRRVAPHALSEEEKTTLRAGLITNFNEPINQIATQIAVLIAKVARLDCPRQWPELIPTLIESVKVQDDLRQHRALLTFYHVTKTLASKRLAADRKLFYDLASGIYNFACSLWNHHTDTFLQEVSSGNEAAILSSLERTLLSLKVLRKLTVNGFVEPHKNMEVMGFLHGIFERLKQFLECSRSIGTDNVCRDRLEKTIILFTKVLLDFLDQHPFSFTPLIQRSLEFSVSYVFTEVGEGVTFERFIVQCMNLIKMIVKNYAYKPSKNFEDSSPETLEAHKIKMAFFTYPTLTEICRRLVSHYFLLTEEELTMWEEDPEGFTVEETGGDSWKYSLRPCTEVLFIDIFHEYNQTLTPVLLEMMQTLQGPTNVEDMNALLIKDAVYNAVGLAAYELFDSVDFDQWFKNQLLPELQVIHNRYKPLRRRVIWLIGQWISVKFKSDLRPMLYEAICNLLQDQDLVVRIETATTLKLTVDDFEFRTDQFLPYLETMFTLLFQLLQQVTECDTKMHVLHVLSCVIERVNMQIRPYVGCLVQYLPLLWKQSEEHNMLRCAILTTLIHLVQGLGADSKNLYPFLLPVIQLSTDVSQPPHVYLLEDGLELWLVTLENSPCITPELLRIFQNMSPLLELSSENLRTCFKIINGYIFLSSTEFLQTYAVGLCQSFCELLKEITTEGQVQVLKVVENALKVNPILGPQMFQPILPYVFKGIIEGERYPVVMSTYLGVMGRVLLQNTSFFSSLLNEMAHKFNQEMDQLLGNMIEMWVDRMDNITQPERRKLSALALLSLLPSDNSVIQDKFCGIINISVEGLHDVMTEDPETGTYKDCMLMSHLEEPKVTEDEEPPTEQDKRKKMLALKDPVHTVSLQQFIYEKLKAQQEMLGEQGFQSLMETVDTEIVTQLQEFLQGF

[2] = molecular target: TNPO1 (human) (UniProt Q92973)
[3] = molecular target: T2, importin 13 (IPO13) (human) (UniProt O94829)
T2 sequence: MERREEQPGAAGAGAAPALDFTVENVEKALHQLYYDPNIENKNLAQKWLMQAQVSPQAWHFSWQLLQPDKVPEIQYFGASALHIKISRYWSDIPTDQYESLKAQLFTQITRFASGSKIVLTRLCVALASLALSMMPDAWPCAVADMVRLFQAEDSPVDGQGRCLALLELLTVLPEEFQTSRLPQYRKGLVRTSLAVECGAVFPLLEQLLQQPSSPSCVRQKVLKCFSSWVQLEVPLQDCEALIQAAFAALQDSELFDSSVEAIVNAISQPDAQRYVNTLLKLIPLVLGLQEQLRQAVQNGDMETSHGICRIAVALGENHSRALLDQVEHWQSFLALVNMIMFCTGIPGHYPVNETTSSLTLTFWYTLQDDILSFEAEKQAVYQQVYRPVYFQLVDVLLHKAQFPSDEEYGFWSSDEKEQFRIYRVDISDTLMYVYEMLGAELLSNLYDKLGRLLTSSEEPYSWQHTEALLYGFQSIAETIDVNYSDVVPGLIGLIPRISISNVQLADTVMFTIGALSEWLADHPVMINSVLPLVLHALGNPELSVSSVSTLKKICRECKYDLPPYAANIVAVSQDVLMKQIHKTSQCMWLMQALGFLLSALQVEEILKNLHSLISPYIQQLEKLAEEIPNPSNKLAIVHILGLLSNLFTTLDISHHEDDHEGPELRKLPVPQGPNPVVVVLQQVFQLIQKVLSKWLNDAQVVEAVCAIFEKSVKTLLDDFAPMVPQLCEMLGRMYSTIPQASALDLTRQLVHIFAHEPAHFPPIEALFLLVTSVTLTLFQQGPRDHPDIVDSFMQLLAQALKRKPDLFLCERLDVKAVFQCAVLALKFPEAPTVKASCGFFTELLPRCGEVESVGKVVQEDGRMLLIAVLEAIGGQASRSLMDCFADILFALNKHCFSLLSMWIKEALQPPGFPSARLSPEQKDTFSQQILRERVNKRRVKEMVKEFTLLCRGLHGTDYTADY

[4] = molecular target: T3, NXT1 (human) (UniProt Q9UKK6)
T3 sequence: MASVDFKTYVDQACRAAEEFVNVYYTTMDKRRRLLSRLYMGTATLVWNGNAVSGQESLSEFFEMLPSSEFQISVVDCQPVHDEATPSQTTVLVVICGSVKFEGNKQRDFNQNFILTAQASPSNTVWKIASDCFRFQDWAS

[5] = molecular target: IMA6 (human) (UniProt O15131)

- binding [1]: binds weakly
- binding [2]: binds
- binding [3]: binds weakly
- binding [4]: binds
- binding [5]: binds
Substance: NUP153 (from UniProt P49790 1-1475)
